Results: PMC10409943
Results are given in words; binding and its absence hold for the method and conditions named. In cells and extracts the contact can be indirect. Some results given as binding are weak or reduced against the parent protein; the word gives no strength.

Sequences of proteins named here, by UniProt entry; tags and fusion partners are left off. Residues count along the entry.
UniProt P10912, residues 19-638: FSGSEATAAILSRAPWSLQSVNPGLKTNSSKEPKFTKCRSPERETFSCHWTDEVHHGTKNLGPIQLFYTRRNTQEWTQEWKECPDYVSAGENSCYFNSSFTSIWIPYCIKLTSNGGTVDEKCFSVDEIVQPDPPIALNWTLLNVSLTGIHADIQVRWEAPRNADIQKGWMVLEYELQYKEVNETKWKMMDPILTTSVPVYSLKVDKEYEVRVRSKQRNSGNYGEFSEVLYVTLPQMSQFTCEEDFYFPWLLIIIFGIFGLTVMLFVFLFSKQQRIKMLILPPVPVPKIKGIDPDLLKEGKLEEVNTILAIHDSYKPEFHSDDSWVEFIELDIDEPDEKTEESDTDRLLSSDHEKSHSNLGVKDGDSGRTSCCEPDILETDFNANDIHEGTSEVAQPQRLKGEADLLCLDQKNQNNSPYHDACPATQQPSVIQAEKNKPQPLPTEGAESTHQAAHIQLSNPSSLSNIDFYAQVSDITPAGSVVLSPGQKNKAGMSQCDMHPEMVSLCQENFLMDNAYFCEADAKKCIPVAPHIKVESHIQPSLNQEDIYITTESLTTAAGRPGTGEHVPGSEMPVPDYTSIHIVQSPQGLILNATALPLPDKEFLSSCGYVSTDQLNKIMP

Experiments:
[1] = target: T1, high mobility group nucleosome binding domain 1 (human (endogenous in RL95-2)) (UniProt P05114); assay: co-IP; nuclear and cytoplasmic fractions of serum-starved RL95-2 cells treated with 500 ng/ml GH for 0 and 5 min; precipitated with the combination of anti-GHR antibodies (ab89400 and sc-137185) or with an HMGN1 antibody; blotted for HMGN1 or GHR
T1 sequence: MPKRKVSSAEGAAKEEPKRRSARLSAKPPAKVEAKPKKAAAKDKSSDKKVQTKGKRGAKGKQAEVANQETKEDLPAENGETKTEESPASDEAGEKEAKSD

[2] = target: growth hormone receptor (human (endogenous in RL95-2)) (UniProt P10912); assay: as above

**Q.** How did the binding [1] turn out when “growth hormone receptor (from UniProt P10912 19-638)” was run?
**A.** binds

B1: high mobility group nucleosome binding domain 1 (protein, UniProt P05114 1-100)
chain: T1 sequence
**Q.** Which binding [2] does the source give for B1 here?
**A.** binds
